Measured values published in publication PMC4836198.
No constants are given. Whether binding was seen depends on the method and setting. Binding seen in cells or lysates may run through a third protein. These calls come from enrichment with a bait or labelling near it, and not all partners need be listed. Tags and fused reporters may be left off the sequences shown.

By UniProt entry, the sequences of proteins in these tests, tags left out. Where a name states a change or a piece, a line headed by the entry shows the natural chain unless it says otherwise.
UniProt P08111: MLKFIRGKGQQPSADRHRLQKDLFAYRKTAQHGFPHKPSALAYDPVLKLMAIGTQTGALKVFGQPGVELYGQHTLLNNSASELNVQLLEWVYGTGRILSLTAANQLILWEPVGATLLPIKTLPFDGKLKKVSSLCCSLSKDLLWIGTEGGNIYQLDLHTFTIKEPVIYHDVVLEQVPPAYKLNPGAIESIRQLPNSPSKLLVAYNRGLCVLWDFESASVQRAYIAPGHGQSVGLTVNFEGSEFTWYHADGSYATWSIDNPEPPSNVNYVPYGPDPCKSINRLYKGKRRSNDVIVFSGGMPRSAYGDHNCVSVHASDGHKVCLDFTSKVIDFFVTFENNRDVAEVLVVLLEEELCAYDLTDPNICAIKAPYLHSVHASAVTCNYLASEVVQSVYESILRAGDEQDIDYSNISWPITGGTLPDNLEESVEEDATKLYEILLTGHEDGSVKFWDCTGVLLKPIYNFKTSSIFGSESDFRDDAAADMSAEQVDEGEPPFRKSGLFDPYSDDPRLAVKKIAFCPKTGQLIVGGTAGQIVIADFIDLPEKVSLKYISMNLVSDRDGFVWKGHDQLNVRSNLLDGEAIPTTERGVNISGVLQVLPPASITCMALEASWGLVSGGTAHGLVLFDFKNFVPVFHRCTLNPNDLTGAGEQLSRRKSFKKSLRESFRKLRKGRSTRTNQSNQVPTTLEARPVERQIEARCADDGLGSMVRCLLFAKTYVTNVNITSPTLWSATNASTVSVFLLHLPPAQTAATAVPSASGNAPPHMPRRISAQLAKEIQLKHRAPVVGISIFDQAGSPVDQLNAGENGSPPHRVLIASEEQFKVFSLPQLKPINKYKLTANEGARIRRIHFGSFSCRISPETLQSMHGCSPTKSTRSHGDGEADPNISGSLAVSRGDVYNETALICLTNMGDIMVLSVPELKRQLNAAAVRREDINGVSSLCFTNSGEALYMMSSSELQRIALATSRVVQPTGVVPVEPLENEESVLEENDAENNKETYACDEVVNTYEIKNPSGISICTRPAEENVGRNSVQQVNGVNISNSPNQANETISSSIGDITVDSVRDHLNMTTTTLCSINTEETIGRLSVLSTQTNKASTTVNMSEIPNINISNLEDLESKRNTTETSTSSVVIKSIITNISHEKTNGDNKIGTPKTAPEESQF

The substances below were run against T1, Tetra-Tag aPKC full-length (TTaPKC FL) (Drosophila) (UniProt A1Z9X0) (assay: affinity purification with mass spectrometry; Tandem Affinity Purification of TTaPKC FL from extracts of embryos overexpressing it (69B-Gal4); control 69B-Gal4 extract; bands identified by mass spectrometry).
T1 sequence: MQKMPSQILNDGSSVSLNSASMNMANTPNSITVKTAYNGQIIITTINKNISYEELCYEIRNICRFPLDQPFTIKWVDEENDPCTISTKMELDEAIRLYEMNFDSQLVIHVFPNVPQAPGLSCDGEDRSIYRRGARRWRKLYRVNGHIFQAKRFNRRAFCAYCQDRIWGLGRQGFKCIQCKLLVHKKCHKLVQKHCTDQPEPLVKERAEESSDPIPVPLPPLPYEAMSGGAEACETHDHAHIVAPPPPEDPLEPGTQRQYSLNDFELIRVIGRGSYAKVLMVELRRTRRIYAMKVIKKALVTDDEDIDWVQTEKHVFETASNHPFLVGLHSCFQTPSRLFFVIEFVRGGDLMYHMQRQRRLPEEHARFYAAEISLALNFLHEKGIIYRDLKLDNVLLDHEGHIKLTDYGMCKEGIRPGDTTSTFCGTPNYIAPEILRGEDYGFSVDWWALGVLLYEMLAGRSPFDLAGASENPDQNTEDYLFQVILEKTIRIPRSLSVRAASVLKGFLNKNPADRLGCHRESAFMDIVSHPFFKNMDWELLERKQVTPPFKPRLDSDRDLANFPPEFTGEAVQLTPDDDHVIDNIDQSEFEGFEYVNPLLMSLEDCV
For Lgl, endogenous (from UniProt P08111), the binding was “binds”.
In the case of “Nuclear Fallout (Nuf), endogenous (Drosophila (endogenous in embryos))”, the binding is reported as “binds”.
With “Par-1, endogenous (Drosophila (endogenous in embryos))” the binding was “binds”.
